These are yes or no findings as the source states them, for the method shown. Some entries that bind do so weakly or less than the wild type. Sequences can lack the tags named with a protein.
Target: T1, FepA (E. coli) (UniProt P05825)
T1 sequence: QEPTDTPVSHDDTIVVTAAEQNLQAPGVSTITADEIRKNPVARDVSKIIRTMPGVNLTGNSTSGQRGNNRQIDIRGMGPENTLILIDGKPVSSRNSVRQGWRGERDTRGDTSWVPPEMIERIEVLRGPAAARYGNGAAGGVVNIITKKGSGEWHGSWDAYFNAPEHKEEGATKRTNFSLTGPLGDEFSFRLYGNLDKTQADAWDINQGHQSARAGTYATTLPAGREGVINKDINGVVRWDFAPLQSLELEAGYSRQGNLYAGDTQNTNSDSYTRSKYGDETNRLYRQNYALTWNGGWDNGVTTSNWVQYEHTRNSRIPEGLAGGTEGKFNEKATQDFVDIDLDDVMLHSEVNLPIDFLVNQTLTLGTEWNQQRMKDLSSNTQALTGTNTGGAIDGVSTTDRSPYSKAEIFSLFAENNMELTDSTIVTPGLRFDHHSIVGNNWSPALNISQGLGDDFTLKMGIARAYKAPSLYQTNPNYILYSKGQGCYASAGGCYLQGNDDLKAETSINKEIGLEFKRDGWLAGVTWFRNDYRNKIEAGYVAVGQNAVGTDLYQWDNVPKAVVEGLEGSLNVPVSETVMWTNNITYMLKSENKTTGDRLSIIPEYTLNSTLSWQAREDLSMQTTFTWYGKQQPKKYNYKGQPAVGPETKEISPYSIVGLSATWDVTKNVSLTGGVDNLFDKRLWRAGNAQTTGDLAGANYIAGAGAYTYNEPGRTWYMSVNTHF
Assay: fluorescence microscopy of cells labelled with fluorescent colicin

- binding: binds
B1: Colicin B^1-341 GFP (domain or fragment, UniProt P05819 1-341)
chain: MSDNEGSVPTEGIDYGDTMVVWPSTGRIPGGDVKPGGSSGLAPSMPPGWGDYSPQGIALVQSVLFPGIIRRIILDKELEEGDWSGWSVSVHSPWGNEKVSAARTVLENGLRGGLPEPSRPAAVSFARLEPASGNEQKIIRLMVTQQLEQVTDIPASQLPAAGNNVPVKYRLTDLMQNGTQYMAIIGGIPMTVPVVDAVPVPDRSRPGTNIKDVYSAPVSPNLPDLVLSVGQMNTPVRSNPEIQEDGVISETGNYVEAGYTMSSNNHDVIVRFPEGSGVSPLYISAVEILDSNSLSQRQEAENNAKDDFRVKKEQENDEKTVLTKTSEVIISVGDKVGEYLG

— doi:10.1101/2021.01.27.428258
